Data as given in PubChem BioAssay (NCI).
The hits were mostly taken out for another list; the other results follow. Activity calls are given as the source filed them. Rule as the data show it: active = growth inhibition above about 70%; inactive = the rest.

Key:
[1] = NCI Yeast Anticancer Drug Screen. Data for the rad52 strain (AID 147);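 also: 0% = growth of vehicle-treated control cultures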; conditions: S. cerevisiae rad52 mutant growth inhibition, active compounds read high
Procedure, shortened: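 Inhibition of yeast growth, referenced to vehicle controls, was the measured output for a strain with defective DNA damage repair.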

[2] = NCI Yeast Anticancer Drug Screen. Data for the wt1 strain (AID 149);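 also: 0% = growth of vehicle-treated wt1 cultures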; conditions: S. cerevisiae wt1 strain (SPY 50644) growth inhibition, active compounds read high
Procedure, shortened: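 Growth inhibition read against vehicle controls after compound exposure of the wt1 yeast strain.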

[3] = NCI Yeast Anticancer Drug Screen. Data for the rad50EPP+ strain (AID 151);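 also: 0% = growth of vehicle-treated control cultures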; conditions: S. cerevisiae rad50 mutant strain, active compounds read high
Procedure, shortened: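 Genetically defined yeast (rad50EPP+, DNA damage repair alteration) is grown with compound, and inhibition of growth is expressed relative to vehicle-treated controls.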

[4] = NCI Yeast Anticancer Drug Screen. Data for the mgt1 strain (AID 153); conditions: S. cerevisiae mgt1 mutant growth inhibition, active compounds read high
Procedure, shortened: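 In the mgt1 strain, test compounds were added and growth inhibition was determined relative to vehicle-treated controls.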

[5] = NCI Yeast Anticancer Drug Screen. Data for the rad14 strain (AID 159);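 also: 0% = growth of vehicle-treated control cultures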; conditions: S. cerevisiae rad14 strain growth inhibition, active compounds read high
Procedure, shortened: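 Growth inhibition vs vehicle controls; genetically altered yeast strain (DNA damage repair defect) treated with test compounds.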

[6] = NCI Yeast Anticancer Drug Screen. Data for the CLN2oe strain (AID 163);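 also: 0% = growth of vehicle-only control cultures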; conditions: S. cerevisiae CLN2oe strain, active compounds read high
Procedure, shortened: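 First, the altered yeast strain was treated with each compound; second, its growth was measured; finally, inhibition was derived by comparison with vehicle controls.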

[7] = NCI Yeast Anticancer Drug Screen. Data for the wt2 strain (AID 169);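 also: 0% = growth of vehicle-treated yeast cultures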; conditions: S. cerevisiae wt2 strain growth inhibition, active compounds read high
Procedure, shortened: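 The panel's yeast strains carry defined changes in DNA repair or cell cycle genes. Each strain is grown with compound, and growth loss is scored relative to vehicle.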

[8] = NCI Yeast Anticancer Drug Screen. Data for the mlh1 strain (AID 171);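 also: 0% = growth of vehicle-treated control cultures of the same strain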; conditions: S. cerevisiae mlh1 strain growth inhibition, active compounds read high
Procedure, shortened: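 Inhibition values reflect reduced yeast growth in the presence of compound, referenced to vehicle controls, using a strain chosen for its alteration in DNA repair or cell cycle control.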

[9] = NCI Yeast Anticancer Drug Screen. Data for the sgs1 strain (AID 173);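 also: 0% = growth of vehicle-only control cultures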; conditions: S. cerevisiae sgs1 mutant, active compounds read high
Procedure, shortened: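 Vehicle-treated cultures served as reference for growth inhibition of a yeast strain altered in DNA damage repair or cell cycle control after compound exposure.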

[10] = NCI Yeast Anticancer Drug Screen. Data for the rad18 strain (AID 177); conditions: S. cerevisiae rad18 mutant growth inhibition, active compounds read high
Procedure, shortened: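 Steps: expose repair-mutant yeast to compound; measure growth; express as inhibition relative to vehicle control.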

Measured: growth inhibition

O=[N+]([O-])c1nccn1CCCNc1ccnc2cc(Cl)ccc12
inactive: [1]; at 1.2 µM -1% | [1]; at 3.7 µM 1% | [1]; at 11.0 µM 4% | [1]; at 33.0 µM 5% | [1]; at 100.0 µM 12% | [2]; at 1.2 µM 0% | [2]; at 3.7 µM -1% | [2]; at 11.0 µM -2% | [2]; at 33.0 µM -1% | [2]; at 100.0 µM -17% | [3]; at 1.2 µM -2% | [3]; at 3.7 µM -3% | [3]; at 11.0 µM 0% | [3]; at 33.0 µM 6% | [3]; at 100.0 µM 6% | [4]; at 1.2 µM -2% | [4]; at 3.7 µM -1% | [4]; at 11.0 µM -2% | [4]; at 33.0 µM -2% | [4]; at 100.0 µM -5% | [5]; at 1.2 µM -2% | [5]; at 3.7 µM -4% | [5]; at 11.0 µM -1% | [5]; at 33.0 µM -3% | [5]; at 100.0 µM 1% | [6]; at 1.2 µM -5% | [6]; at 3.7 µM -7% | [6]; at 11.0 µM -7% | [6]; at 33.0 µM -10% | [6]; at 100.0 µM -11% | [7]; at 1.2 µM -3% | [7]; at 3.7 µM -1% | [7]; at 11.0 µM -2% | [7]; at 33.0 µM -2% | [7]; at 100.0 µM -2% | [8]; at 1.2 µM -2% | [8]; at 3.7 µM -1% | [8]; at 11.0 µM 0% | [8]; at 33.0 µM -1% | [8]; at 100.0 µM 2% | [9]; at 1.2 µM 1% | [9]; at 3.7 µM 0% | [9]; at 11.0 µM 3% | [9]; at 33.0 µM 7% | [9]; at 100.0 µM 17% | [10]; at 1.2 µM 5% | [10]; at 3.7 µM 10% | [10]; at 11.0 µM 15% | [10]; at 33.0 µM 29% | [10]; at 100.0 µM 55%

COC(=O)C1(NC(=O)C(CC(=O)OCc2ccccc2)NC(=O)OCc2ccccc2)CCCCCCC1 (stereo not given)
inactive: [3]; at 1.2 µM 1% | [3]; at 3.7 µM 3% | [3]; at 11.0 µM 13% | [3]; at 33.0 µM 13% | [3]; at 100.0 µM 2% | [4]; at 1.2 µM -2% | [4]; at 3.7 µM -5% | [4]; at 11.0 µM -7% | [4]; at 33.0 µM 36% | [4]; at 100.0 µM 27% | [5]; at 1.2 µM -2% | [5]; at 3.7 µM -5% | [5]; at 11.0 µM -8% | [5]; at 33.0 µM 7% | [5]; at 100.0 µM 8% | [6]; at 1.2 µM -4% | [6]; at 3.7 µM -10% | [6]; at 11.0 µM -7% | [6]; at 33.0 µM 41% | [6]; at 100.0 µM 43% | [7]; at 1.2 µM -1% | [7]; at 3.7 µM -1% | [7]; at 11.0 µM 0% | [7]; at 33.0 µM 25% | [7]; at 100.0 µM 26% | [8]; at 1.2 µM -1% | [8]; at 3.7 µM -1% | [8]; at 11.0 µM -1% | [8]; at 33.0 µM 33% | [8]; at 100.0 µM 36% | [9]; at 1.2 µM 0% | [9]; at 3.7 µM 2% | [9]; at 11.0 µM 6% | [9]; at 33.0 µM 41% | [9]; at 100.0 µM 42% | [10]; at 1.2 µM 0% | [10]; at 3.7 µM 0% | [10]; at 11.0 µM 26% | [10]; at 33.0 µM 27% | [10]; at 100.0 µM 29%

C/C(=N/NC(N)=O)C(C)(OCC(C)C)c1ccccc1 (stereo not given)
inactive: [2]; at 1.2 µM -2% | [2]; at 3.7 µM 2% | [2]; at 11.0 µM -2% | [2]; at 33.0 µM -3% | [2]; at 100.0 µM -2% | [3]; at 1.2 µM -1% | [3]; at 3.7 µM -3% | [3]; at 11.0 µM -3% | [3]; at 33.0 µM -4% | [3]; at 100.0 µM -2% | [4]; at 1.2 µM -5% | [4]; at 3.7 µM -2% | [4]; at 11.0 µM -1% | [4]; at 33.0 µM -1% | [4]; at 100.0 µM -2% | [5]; at 1.2 µM -1% | [5]; at 3.7 µM 1% | [5]; at 11.0 µM 2% | [5]; at 33.0 µM 0% | [5]; at 100.0 µM 2% | [6]; at 1.2 µM -3% | [6]; at 3.7 µM -6% | [6]; at 11.0 µM -1% | [6]; at 33.0 µM -3% | [6]; at 100.0 µM -8% | [7]; at 1.2 µM -1% | [7]; at 3.7 µM 0% | [7]; at 11.0 µM -1% | [7]; at 33.0 µM 0% | [7]; at 100.0 µM -2% | [8]; at 1.2 µM -1% | [8]; at 3.7 µM -4% | [8]; at 11.0 µM -3% | [8]; at 33.0 µM -2% | [8]; at 100.0 µM -1% | [9]; at 1.2 µM -3% | [9]; at 3.7 µM -4% | [9]; at 11.0 µM -5% | [9]; at 33.0 µM -3% | [9]; at 100.0 µM -1% | [10]; at 1.2 µM -1% | [10]; at 3.7 µM -5% | [10]; at 11.0 µM -5% | [10]; at 33.0 µM -4% | [10]; at 100.0 µM -7%

C=C(NC(=O)C(NC(=O)C(CCCCN)NC(=O)C1CSC(C)C2NC(=O)C(CC(C)C)NC(=O)C(NC(=O)C(CCC(N)=O)NC(=O)C(CC(C)C)NC(=O)C(Cc3ccccc3)NC(=O)C3CSC(C)C(NC(=O)C(NC(=O)C4CSC(C)C(NC(=O)C5CSCC(NC(=O)C(CCCCN)NC(=O)C(N)Cc6c[nH]c7ccccc67)C(=O)NC(CCC(=O)O)C(=O)NC(=C)C(=O)NC(CC(C)C)C(=O)N5)C(=O)N5CCCC5C(=O)NCC(=O)N4)C(C)C)C(=O)NCC(=O)NC(C)C(=O)NC(CC(C)C)C(=O)NC(CCC(N)=O)C(=O)N/C(=C/C)C(=O)N3)C(C)SCC(NC2=O)C(=O)NC(CC(N)=O)C(=O)N1)C(C)CC)C(=O)NC(CCCCN)C(=O)O (stereo not given)
inactive: [1]; at 1.2 µM -1% | [1]; at 3.7 µM -2% | [1]; at 11.0 µM -4% | [1]; at 33.0 µM -5% | [1]; at 100.0 µM -6% | [3]; at 1.2 µM 1% | [3]; at 3.7 µM 4% | [3]; at 11.0 µM 3% | [3]; at 33.0 µM -7% | [3]; at 100.0 µM -1% | [4]; at 1.2 µM -1% | [4]; at 3.7 µM -8% | [4]; at 11.0 µM -3% | [4]; at 33.0 µM -6% | [4]; at 100.0 µM -10% | [5]; at 1.2 µM 1% | [5]; at 3.7 µM 3% | [5]; at 11.0 µM 4% | [5]; at 33.0 µM 1% | [5]; at 100.0 µM 4% | [6]; at 1.2 µM 1% | [6]; at 3.7 µM 1% | [6]; at 11.0 µM 0% | [6]; at 33.0 µM 9% | [6]; at 100.0 µM 6% | [7]; at 1.2 µM -1% | [7]; at 3.7 µM -3% | [7]; at 11.0 µM -5% | [7]; at 33.0 µM -5% | [7]; at 100.0 µM -9%
